Results of single-concentration screens

The chains behind the UniProt entries cited, without tags or fusion partners. Residues count along the entry.
UniProt Q4DA54, 1-478: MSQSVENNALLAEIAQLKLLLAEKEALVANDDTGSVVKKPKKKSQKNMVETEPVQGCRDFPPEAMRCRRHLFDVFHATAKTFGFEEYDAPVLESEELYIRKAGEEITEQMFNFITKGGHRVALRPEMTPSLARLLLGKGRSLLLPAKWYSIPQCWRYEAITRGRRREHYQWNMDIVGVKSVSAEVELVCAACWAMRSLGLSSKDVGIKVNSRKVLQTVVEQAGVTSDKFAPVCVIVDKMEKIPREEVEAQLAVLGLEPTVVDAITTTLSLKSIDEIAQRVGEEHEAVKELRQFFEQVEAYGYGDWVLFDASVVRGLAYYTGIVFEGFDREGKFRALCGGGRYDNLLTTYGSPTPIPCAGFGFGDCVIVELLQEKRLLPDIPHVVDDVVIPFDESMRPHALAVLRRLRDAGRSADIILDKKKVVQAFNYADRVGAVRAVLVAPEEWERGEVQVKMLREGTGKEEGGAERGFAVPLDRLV
UniProt A4I591, 1-473: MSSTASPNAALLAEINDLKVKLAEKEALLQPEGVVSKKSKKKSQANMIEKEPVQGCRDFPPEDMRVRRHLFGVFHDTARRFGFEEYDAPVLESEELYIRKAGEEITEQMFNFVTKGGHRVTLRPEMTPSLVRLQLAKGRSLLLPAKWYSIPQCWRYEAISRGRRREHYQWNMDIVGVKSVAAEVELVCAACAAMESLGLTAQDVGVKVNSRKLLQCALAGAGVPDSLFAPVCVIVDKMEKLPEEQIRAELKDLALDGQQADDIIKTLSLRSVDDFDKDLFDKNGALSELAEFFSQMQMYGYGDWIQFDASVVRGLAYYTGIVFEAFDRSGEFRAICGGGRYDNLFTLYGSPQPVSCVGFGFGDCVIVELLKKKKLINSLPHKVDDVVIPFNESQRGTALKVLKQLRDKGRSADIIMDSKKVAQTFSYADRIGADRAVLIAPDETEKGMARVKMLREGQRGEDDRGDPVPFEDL
UniProt Q8IDJ8, 1-583: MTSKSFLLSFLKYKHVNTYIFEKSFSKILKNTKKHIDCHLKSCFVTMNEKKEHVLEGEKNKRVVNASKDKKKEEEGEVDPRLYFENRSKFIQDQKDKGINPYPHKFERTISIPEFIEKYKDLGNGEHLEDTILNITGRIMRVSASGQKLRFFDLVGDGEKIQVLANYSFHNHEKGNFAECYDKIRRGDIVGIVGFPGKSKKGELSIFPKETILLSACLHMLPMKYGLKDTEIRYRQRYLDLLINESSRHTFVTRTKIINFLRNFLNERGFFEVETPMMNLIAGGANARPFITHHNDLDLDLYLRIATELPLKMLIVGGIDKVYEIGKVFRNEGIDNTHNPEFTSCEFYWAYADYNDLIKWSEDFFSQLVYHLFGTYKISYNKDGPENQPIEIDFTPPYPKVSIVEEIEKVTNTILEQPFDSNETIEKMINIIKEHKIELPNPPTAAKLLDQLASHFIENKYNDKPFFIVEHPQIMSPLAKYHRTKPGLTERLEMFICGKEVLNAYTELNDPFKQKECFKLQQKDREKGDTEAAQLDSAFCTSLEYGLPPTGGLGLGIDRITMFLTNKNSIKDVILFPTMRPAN

Data taken from ChEMBL document CHEMBL3988442, “University of Dundee, Small-Polar-MMV Screening Library” (2021).

Results are given as percent effect.
How 0% and 100% were set is not recorded. Most values in the screen are low, and negative values occur.
The compounds are a random part of those screened.

A: 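Enzyme assay of histidyl-tRNA synthetase; the read-out is not stated. Target: Histidine-tRNA ligase, Trypanosoma cruzi CL Brener (UniProt Q4DA54). Tested at 30 µM. The record gives no direction; compounds that gave an IC50 in retests scored well above the rest, so higher reads as stronger inhibition. Of about 69,000 compounds tested this way, about 31 (0.045%) reached 50% or more in at least one test.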
B: 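Histidine-tRNA ligase, Leishmania infantum (UniProt A4I591). Enzyme assay of histidyl-tRNA synthetase; the read-out is not stated. Tested at 30 µM. Higher reads as stronger inhibition (inferred: compounds with an IC50 in retests scored well above the rest). The assay is labelled LdHisRS but filed under L. infantum. Size under these conditions: about 69,000 compounds, about 410 of them at 50% or above in at least one test.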
C: 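Lysine-tRNA ligase, Plasmodium falciparum 3D7 (UniProt Q8IDJ8). Enzyme assay of the cytosolic lysyl-tRNA synthetase in 384-well plates, read by luminescence. Tested at 30 µM. Higher reads as stronger inhibition, judged from the few compounds that gave an IC50. Of about 69,000 compounds tested this way, about 49 (0.071%) reached 50% or more in at least one test.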

Result for CC(C)Cc1nc(OCC(N)=O)c(C#N)c2c1CCC2 was A: 4.132%; B: -7.619%; C: -3.636%. CN(C)C(=O)CCCS(=O)(=O)Cc1cc(Cl)c2c(c1)OCO2 gave A: 4.624%; B: 11.61%; C: 1.155%. Cc1ncsc1C(=O)N1CCCC(c2nccn2Cc2cscn2)C1 (stereo unspecified) gave A: -3.518%; B: 13.6%; C: 5.283%. With Cc1ccc(C(=O)Nc2c(C(=O)N(C)C)nn(C)c2C)cc1 the screen gave A: 2.609%; B: 10.34%; C: 6.755%. With COc1cccc(-n2c(C)cc(C(=O)NS(C)(=O)=O)c2C)c1 the screen gave A: 4.511%; B: -21.35%; C: 15.21%. Result for OC(COc1ccccc1)CN1CCC(c2ccn[nH]2)CC1 (stereo unspecified) was A: 0.7519%; B: -32.58%; C: 14.16%.

CS(=O)(=O)c1cccc(Cl)c1C(=O)NCCN1C(=O)CCC1=O read A: 8.861%; B: 6.25%; C: -0.974%. For COc1cccc(-c2noc(C3CCN(Cc4ccccc4F)C3)n2)c1 (stereo unspecified) the result was A: -3.39%; B: -8.571%; C: -2.822%. CC(C)(C)c1ncc(C(=O)NCCNc2ncccn2)s1 gave A: 1.734%; B: 15.18%; C: 2.654%. For NC(=O)C(NC(=O)COCCc1ccccc1)c1ccccc1F (stereo unspecified) the result was A: 3.03%; B: 6.349%; C: 3.361%. CC(C)c1nnc2n1CC(CNc1cnc3ccccc3n1)CC2 (stereo unspecified) gave A: 9.827%; B: 19.15%; C: 1.288%. Cc1csc(CN(C)C(=O)c2cccc(CCC(C)(C)O)c2)n1 read A: 8.939%; B: 8.333%; C: 6.874%.

Cc1ccc(NC2CCN(C(=O)CCc3cscn3)CC2)nn1 gave A: 2.326%; B: -1.786%; C: -1.873%. CN(C)c1nc(NCCc2ccccn2)ncc1F gave A: 2.146%; B: -37.7%; C: 3.042%. Cc1cnn(Cc2cc(F)ccc2F)c1NC(=O)NC1CC1 read A: 0.4149%; B: 18.45%; C: 5.873%. With COCc1nn(Cc2ccc(Cl)s2)c(=O)o1 the screen gave A: 2.488%; B: -6.024%; C: -3.339%. Result for COc1ccc(-c2nc3c([nH]2)CCNC3)c(OC)c1OC was A: 6.18%; B: 17.95%; C: 0.1468%. CC(C)(C)c1n[nH]c(C2CN(C(=O)CCc3cccs3)CCO2)n1 (stereo unspecified) gave A: 7.059%; B: 9.174%; C: 0.5871%.

Result for COCc1ccc(C(=O)N2CC[C@@](O)(COC)C(C)(C)C2)o1 was A: 6.077%; B: 18.31%; C: -2.641%. COCc1nn(CC2CC2)c2c1CN(C(=O)c1ccno1)CC2 gave A: 2.151%; B: 21.05%; C: 3.776%. With COc1cccc(OCC2CCCN(C(=O)Cc3cccc(O)c3)C2)c1 (stereo unspecified) the screen gave A: 3.922%; B: 22.4%; C: 7.877%. COc1ncccc1NC(=O)NC(CCCO)c1ccccc1 (stereo unspecified) gave A: 7.212%; B: 17.07%; C: -0.6426%. Cc1ccc(Br)cc1NC(=O)NCC(O)CO (stereo unspecified) read A: 4.255%; B: 15.71%; C: 3.041%. For c1ccc(CCN2CCCC2c2ccnc(Nc3ncccn3)n2)cc1 (stereo unspecified) the result was A: 15.41%; B: 34.04%; C: 1.083%.

Result for CCCc1nnc2sc(C3CCN(CC)CC3)nn12 was A: -6.468%; B: -20.98%; C: 1.514%. O=C(NC1CCCC1)c1ccc(COCC(F)(F)F)o1 gave A: 1.98%; B: 7.609%; C: 4.55%. For NS(=O)(=O)Cc1cccc(C(=O)N2CCCC(n3cccn3)C2)c1 (stereo unspecified) the result was A: 4.985%; B: 13.89%; C: 0.3815%. For CN(CC(=O)N1CCCC1)C(=O)c1cccn1CCc1ccccc1 the result was A: 8.434%; B: 8%; C: 1.212%. O=C1CC2(CCN(c3nncs3)C2)CN1c1ccccc1 (stereo unspecified) read A: -26.2%; B: 9.615%; C: 11.62%. Result for Cc1nccc(NCc2cc3n(n2)CCCN(C(=O)C2CCC2)C3)n1 was A: 5.025%; B: -1.064%; C: 2.329%.

For CCn1cc(S(=O)(=O)NCC2(N3CCOCC3)CCCCC2)c(C)n1 the result was A: 2.281%; B: 0.6897%; C: -0.1823%. Result for CC(C)c1nc(C2CCCN2CCN2CCCCC2)no1 (stereo unspecified) was A: 11.44%; B: 6.024%; C: -0.6323%. COC[C@@]12CC[C@@H](N3CCOCC3)C[C@H]1CCN(c1ncccc1Cl)C2 gave A: -1.653%; B: 22.86%; C: -0.01092%. CC(=O)Nc1nc(CN(C)CC2CCCN2c2cccnn2)cs1 (stereo unspecified) read A: 8.621%; B: 16.96%; C: 3.858%. With CNC(=O)NCCc1csc2ccccc12 the screen gave A: 3.797%; B: 14.58%; C: 1.592%. Cn1cc(N2CC3(CCN(Cc4ccoc4)CC3)OCC2=O)cn1 read A: 8.537%; B: 28.21%; C: 2.627%.

For Cc1ccc(-c2noc([C@H](N)CC(C)C)n2)nn1 the result was A: 0%; B: 21.88%; C: -1.465%. Result for O=C(CCN1CCCC1C1CCCCC1)N1CCc2sccc2C1 (stereo unspecified) was A: -20.3%; B: 38.1%; C: 2.649%.

Some entries from above, unchanged:

| structure | A | B | C |
|---|---|---|---|
| `CN(C)c1nc(NCCc2ccccn2)ncc1F` | 2.146 | -37.7 | 3.042 |
| `COc1cccc(-c2noc(C3CCN(Cc4ccccc4F)C3)n2)c1` (stereo unspecified) | -3.39 | -8.571 | -2.822 |